Assay results from paper PMC8539224.
Results are given in words; binding and its absence hold for the method and conditions named. Some entries that bind do so weakly or less than the wild type.

Protein sequences, listed by entry. Tags and fused reporters are not part of them. Lines headed by an entry give the natural chain unless they say otherwise; changes in a name come on top.
UniProt P92978: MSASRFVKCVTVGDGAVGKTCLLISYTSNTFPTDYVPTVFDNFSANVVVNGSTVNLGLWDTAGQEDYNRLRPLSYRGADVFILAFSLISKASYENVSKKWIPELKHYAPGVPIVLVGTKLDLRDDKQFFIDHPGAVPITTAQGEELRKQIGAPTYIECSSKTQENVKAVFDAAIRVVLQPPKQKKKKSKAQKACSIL

target: T1, RIC2 (Arabidopsis downstream effector of ROP1) (Arabidopsis thaliana) (UniProt Q8GYU0); test: two-hybrid; S. cerevisiae AH109 co-transformed with AtROP1 and its mutants in pGADT7-Dest and GEF2 or RIC2 in pGBKT7; leu- trp- selection for transformation, his- ade- selection for interaction (0, 1, 3 or 10 mM 3-AT where required)
T1 sequence: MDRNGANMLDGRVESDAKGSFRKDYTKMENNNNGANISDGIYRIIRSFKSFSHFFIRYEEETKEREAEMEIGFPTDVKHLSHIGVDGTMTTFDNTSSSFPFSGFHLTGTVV

Row | Substance | binding
1 | Arabidopsis ROP1 GTPase S97A (from UniProt P92978 1-197) | binds
2 | Arabidopsis ROP1 GTPase S97E (from UniProt P92978 1-197) | binds
3 | Arabidopsis ROP1 GTPase, constitutive active (CA, G15V) (from UniProt P92978 1-197) | binds
4 | Arabidopsis ROP1 GTPase, constitutive active (G15V) with S97A (from UniProt P92978 1-197) | binds
5 | Arabidopsis ROP1 GTPase, constitutive active (G15V) with S97E (from UniProt P92978 1-197) | binds
6 | Arabidopsis ROP1 GTPase, wild type (AtROP1 WT) (from UniProt P92978 1-197) | binds
